Results: PMC8431560
No constants are given. Whether binding was seen depends on the method and setting. In cells and extracts the contact can be indirect. Some binding calls cover weakened binding; strength is not graded here. Sequences can lack the tags named with a protein.

Amino acid sequences for entries named in this document (tags omitted).
UniProt P35133: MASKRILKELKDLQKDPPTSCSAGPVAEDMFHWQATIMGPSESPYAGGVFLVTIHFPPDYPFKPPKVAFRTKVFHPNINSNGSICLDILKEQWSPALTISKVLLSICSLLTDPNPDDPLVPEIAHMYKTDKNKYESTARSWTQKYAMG
UniProt Q94F47: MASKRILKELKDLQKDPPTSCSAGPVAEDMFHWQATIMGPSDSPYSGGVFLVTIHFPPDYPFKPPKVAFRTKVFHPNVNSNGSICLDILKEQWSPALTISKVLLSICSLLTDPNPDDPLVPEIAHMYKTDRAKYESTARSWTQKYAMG
UniProt Q9SLE4: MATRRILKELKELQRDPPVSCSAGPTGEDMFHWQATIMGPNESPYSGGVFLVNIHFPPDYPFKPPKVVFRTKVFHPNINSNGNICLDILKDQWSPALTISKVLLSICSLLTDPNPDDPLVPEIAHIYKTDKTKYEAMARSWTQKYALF
UniProt Q9FKT3: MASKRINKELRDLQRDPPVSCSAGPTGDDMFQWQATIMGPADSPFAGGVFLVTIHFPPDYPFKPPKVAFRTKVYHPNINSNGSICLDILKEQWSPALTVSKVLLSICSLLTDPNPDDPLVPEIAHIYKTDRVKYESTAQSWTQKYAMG

molecular target: T1, SAUL1, C-terminally tagged BiFC construct (Arabidopsis thaliana) (UniProt Q9LM76); assay: split reporter; BiFC (YFP) in Arabidopsis mesophyll protoplasts, confocal microscopy; SAUL1 tagged C-terminally, UBCs tagged N-terminally; n = 100 protoplasts for each UBC
T1 sequence: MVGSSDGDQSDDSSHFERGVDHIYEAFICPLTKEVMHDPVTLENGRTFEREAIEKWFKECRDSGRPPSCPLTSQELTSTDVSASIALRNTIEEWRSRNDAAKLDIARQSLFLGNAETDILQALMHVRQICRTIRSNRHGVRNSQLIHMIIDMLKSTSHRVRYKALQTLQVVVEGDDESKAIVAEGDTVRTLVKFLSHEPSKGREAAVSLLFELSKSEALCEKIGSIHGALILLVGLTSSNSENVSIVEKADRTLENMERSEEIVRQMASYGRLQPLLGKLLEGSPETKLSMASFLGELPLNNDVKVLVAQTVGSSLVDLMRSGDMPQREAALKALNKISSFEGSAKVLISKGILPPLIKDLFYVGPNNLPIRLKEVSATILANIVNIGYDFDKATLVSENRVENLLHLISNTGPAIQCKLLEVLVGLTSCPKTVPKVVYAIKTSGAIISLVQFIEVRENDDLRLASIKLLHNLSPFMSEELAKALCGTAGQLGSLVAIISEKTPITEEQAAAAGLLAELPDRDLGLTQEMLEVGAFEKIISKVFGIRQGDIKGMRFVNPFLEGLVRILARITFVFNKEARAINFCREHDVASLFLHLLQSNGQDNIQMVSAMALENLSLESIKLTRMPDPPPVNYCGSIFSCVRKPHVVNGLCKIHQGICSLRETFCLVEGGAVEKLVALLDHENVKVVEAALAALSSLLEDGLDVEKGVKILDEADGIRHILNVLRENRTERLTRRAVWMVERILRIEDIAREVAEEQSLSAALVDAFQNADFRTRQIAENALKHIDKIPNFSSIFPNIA

Row | binding | Substance
1 | binds | UBC10, N-terminally tagged BiFC construct (from UniProt P35133 1-148) (enzyme)
2 | binds | UBC28, N-terminally tagged BiFC construct (from UniProt Q94F47 1-148) (enzyme)
3 | binds | UBC29, N-terminally tagged BiFC construct (from UniProt Q9SLE4 1-148) (enzyme)
4 | binds | UBC30, N-terminally tagged BiFC construct (from UniProt Q9FKT3 1-148) (enzyme)
